From patent US9266844B2 (priority 2012, dated 2016)
Some entries share one result that the patent states for a list of compounds.

Biological target: nsp13 (Severe acute respiratory syndrome coronavirus, UniProt P0C6X7)
Type: biochemical, SARS-CoV

Question: Which suppression of fluorescence does the source give for C=CCn1c(S)nnc1CSc1ccccc1[N+](=O)[O-] [SSYA10-001, 3-[(2-nitrophenyl)sulfanylmethyl]-4-prop-2-enyl-1H-1,2,4-triazole-5-thione] here?
Answer: > 50%
